# Data as given in PubChem BioAssay AID504804 (Drosophila RNAi Screening Center, 2011)
# Test: 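dsRNAs that improve Kc cell survival under doxorubicin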 (primary screen)
# Cell system: Drosophila Kc cells
# Reagents: long dsRNA against Drosophila genes, 0.5 µg dsRNA per well
# Duration: 96 h (48 h knock-down, then 48 h drug)
# Conditions: doxorubicin 5 µg/ml for 48 h, added 48 h after dsRNA
# Detection: 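Luminescent ATP counts per replicate, not normalised, reflecting viable cells after 48 h dsRNA knock-down followed by 48 h of 5 µg/ml doxorubicin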
# Reading the numbers: raw ATP luminescence: higher = more viable cells, protection from doxorubicin
# Rule for the call: 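z-score of 2 or more over plate mean in both duplicates, retained only when retests and separate dsRNAs confirm the protection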
# In all, the deposit lists about 19,000 reagents; below is an unselected part of those with a known target gene and a result. Of all reagents, 47 (0.25%) were called active. 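Signals are raw, not normalised; exact z-scores behind calls not deposited; actives needed confirmation, so some wells reaching 2 SD are inactive.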 A number with no mark means an inactive call. The numbers tell different reagents against one gene apart. Names joined by + are all predicted targets of the reagent.
Target gene,dsRNA no.,SD above plate mean,"raw ATP luminescence, replicate 1","raw ATP luminescence, replicate 2"
SLC22A,1,,65457,58987
SLC22A,2,,70750,62010
SerT,1,,40557,49400
CG18507,1,,2.88e5,3.18e5
CG18507,2,,74300,1.06e5
ocm,1,,49227,46407
CG33255 (retired record) + hpRNA:CR32205,1,,65357,58510
CG33255 (retired record) + hpRNA:CR32205,2,,67730,60250
Nup160,1,,34590,49153
CG34187 (retired record),1,,81763,92277
hpRNA:CR18854,1,,35480,60097
CG32354,1,,39710,30147
CG32354,2,,84860,94053
CG9240,1,,3.73e5,3.20e5
bonsai,1,,46760,57443
CG30109,1,,1.91e5,1.48e5
GstZ1,1,,62837,28503
Eglp4,1,,64997,50510
TwdlD,1,,72310,54810
CG9932,1,,57893,60913
NPF,1,,79920,67850
CG14259,1,,63360,42560
CG11980,1,,90003,29937
Acox57D-p,1,,68193,57537
CG6843,1,,66510,53933
CG12659,1,,53190,59690
CG4218,1,,47537,69447
Snoo,1,,3.03e5,3.10e5
Snoo,2,,1.31e5,81900
Snoo,3,,54987,83787

Copied from above, 10 entries:
Target gene,dsRNA no.,SD above plate mean,"raw ATP luminescence, replicate 1","raw ATP luminescence, replicate 2"
bonsai,1,,46760,57443
CG30109,1,,1.91e5,1.48e5
GstZ1,1,,62837,28503
Eglp4,1,,64997,50510
TwdlD,1,,72310,54810
CG9932,1,,57893,60913
NPF,1,,79920,67850
CG14259,1,,63360,42560
CG11980,1,,90003,29937
Acox57D-p,1,,68193,57537

More entries follow:
Target gene,dsRNA no.,SD above plate mean,"raw ATP luminescence, replicate 1","raw ATP luminescence, replicate 2"
CG14826,1,,66490,77190
Capa,1,2 to 3 SD above plate mean (active),,
Men-b,1,,58750,41610
CG30156,1,,84513,88007
Ttc1,1,,84530,62940
Vha36-1,1,,69687,65573
GstE11,1,,71610,68020
sona,1,,40803,52430
sona,2,,34490,38843
sona,3,,37110,43840
Dbp21E2,1,,1.04e5,66923
CG15048 (retired record),1,,2.45e5,2.40e5
CG13376,1,,50270,40630
RunxB,1,,1.78e5,1.96e5
RunxB,2,,3.41e5,3.19e5
RunxB,3,,1.41e5,1.01e5
Lip1,1,,39107,57030
Pgant4,1,,29113,31693
Cyp313a2,1,,40797,51533
Ir51b,1,,81690,86043
Pde11,1,,2.17e5,2.21e5
Pde11,2,,28917,25290
Or85a,1,,65487,55200
CtsL1,1,,1.17e5,1.06e5
CtsL1,2,,66803,55020
Polr2I,1,,52860,49940
CG6834,1,,56490,53450
mRpL4,1,,74977,60363
CG31082 (retired record),1,,1.40e5,1.38e5
CG12814,1,,54100,18733
CG12814,2,,54410,37247
CG5280,1,,69293,79013
CG4282,1,,87940,77737
ReepA,1,,70870,50080
MED20,1,,40157,75377
Lmpt,1,,75120,76160
Lmpt,2,,43700,42243
Lmpt,3,,24603,27363
Lmpt,4,,37447,37963
Lmpt,5,,40393,40053
Gss1 + Gss2,1,,3.59e5,3.13e5
Pgm2b,1,,66583,69477
CG31871,1,,43063,63047
CG31871,2,,42507,67673
CG1552,1,,3.41e5,3.41e5
Sptz,1,,44910,58153
Spn28F,1,,49727,73007
CG10576,1,,38020,42747
CG33775,1,,85080,87240
Best3,1,,64063,50700
atk,1,,77887,62223
atk,2,,61900,57863
CG11162,1,,3.49e5,3.20e5
CG31206,1,,2.01e5,2.01e5
